Reference: patent US10603296B1, “Compositions and methods for diagnosis and treatment of neuromuscular disorders” (United States of America as represented by the Secretary of …, priority 2019, dated 2020)

Legend:
[1] = Serum metabolite levels (global metabolomics) in Navy dolphins on modified fish diet; assay type: in vivo, Bottlenose dolphins (Tursiops truncatus); conditions: 2 h postprandial serum
Procedure: The above miR-29C hypothesis was tested in a study. This study examined the ability to identify small molecules in the dolphin serum that, when raised, independently predicted desired changed levels of microRNA targets for neuromuscular disorders. To do this, a modified, wild-type fish diet (“Modified Diet”, see FIG. 1A) was fed to 20 Navy dolphins in netted enclosures within San Diego Bay. The Modified Diets of the 20 Navy dolphins were modified from a 75% capelin (plus 25% mix of squid, herring or mackerel) baseline diet, (“Baseline Diet”, FIG. 1B), to a diet consisting of 25% capelin, 50% mullet, and 25% mix of squid, herring, or mackerel, FIG. 1A, while maintaining the same kilocalories. […] Blood samples from this study archived at −80° C. were submitted for global metabolomics and microRNA readouts. A total of 120 archived serum samples from this study were analyzed for small molecules using global metabolomics. Briefly, serum extracts were prepared and analyzed using three methods: ultrahigh performance liquid chromatography-tandem mass spectroscopy (UPLC-MS/MS) with positive ion mode electrospray ionization (ESI), UPLC-MS/MS with negative ion mode ESI, and hydrophilic interaction liquid chromatography (UPLC-MS/MS). […] Peaks were quantified using area-under-the-curve. […]

[2] = Serum metabolite levels, Sarasota Bay wild dolphins compared to Navy dolphins; assay type: in vivo; conditions: 38 wild Sarasota Bay dolphins vs 26 Navy dolphins (355 samples), Welch's t-test
Procedure: To test this additional hypothesis, routine, fasted serum samples collected throughout 26 Navy dolphins' lifespans and archived at −80° C. were submitted for global metabolomics. The sample set targeted one sample for each dolphin's year of life, resulting in 355 samples for the study with paired clinical pathology data. In addition, single serum samples from 38 healthy wild dolphins living in Sarasota Bay, Fla. were included in the sample set. Methodology for metabolomics analyses were the same as described under Example 1 described above. Welch's two-sample t-tests were performed to compare metabolite quantities between Navy dolphins and wild dolphins, and a P value≤0.05 was used to define significance.

Structure (SMILES) | increase of serum level on modified diet [1] | serum level, wild dolphins relative to Navy dolphins [2] [times higher]
CC(=O)NCCc1c[nH]cn1 [N-acetylhistamine] | 5 fold | 8.93
CCCCCCCCCCCCC(O)C(=O)O (stereo not shown) [2-hydroxymyristate] | 50% | 1.23
